# Reference: PubChem BioAssay AID2685 (National Center for Advancing Translational Sciences (NCATS), 2010)
# The campaign covered roughly 320,000 compounds. About 2,100 (0.66%) were called active. The inconclusive results got no clear call from the source; some entries with a clear call stand among them for comparison. The call rests on the fitted dose curve; in most records, active means well fitted inhibition curve with a large enough effect in the signal ratio, with a control signal flat (not every such curve was filed as active); inconclusive means small, poorly fitted or top-dose-only effect, or effect the other way, or a change in a side signal; inactive means flat fitted curve, though single readings scatter; the % refers to the signal ratio. A potency beside an inconclusive call is a rough fit, not a confirmed value.
# Assay: qHTS Assay for Lipid Storage Modulators in Drosophila S3 Cells
# Settings: BODIPY lipid droplet fluorescence, 18-24 h, cells fed with added oleic acid; lipid storage change, negative = inhibition: at 46.1 µM (top of the series) unless noted
# Method in brief: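 Laser-scanning cytometry quantifies lipid droplet accumulation (500–530 nm total intensity; droplet/cell object ratio) in oleic acid-fed (400 uM added) Drosophila S3 cells treated with a concentration series. 20 uM Triacsin C defined 100% inhibition.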
# On the % scale 0 is the no-effect control and ±100 the full control effect; potency means the concentration at half of the fitted maximal effect.
Compound,"lipid storage change, negative = inhibition",Potency
COc1ccc(CNC(=O)c2c(C)oc3c2C(=O)c2ccccc2C3=O)cc1,inconclusive: 4.34%,–
COc1ccc(NS(=O)(=O)c2cc(Br)cc3c2N(C(C)=O)CC3)cc1,inconclusive: -44.6%,–
CCC1Oc2ccc(C)cc2N(CC(=O)NCc2ccco2)C1=O (stereo not given),–,"inconclusive: 0.82 µM [falling, partial curve, poor fit]"
CCN(CC(=O)Nc1ccc(OC)cc1)C(=O)CSCc1c(C)noc1C,inconclusive: 37.1%,–
COC(=O)c1ccc(N)c(CS(=O)(=O)c2ccc(Cl)cc2)c1,inconclusive: -54.1%,–
O=C1c2cccnc2C(Nc2ccccc2Br)N1Cc1ccco1 (stereo not given),inconclusive: 3.04%,–
CC(=O)N1c2ccc(S(=O)(=O)NCCC(=O)NCc3ccc(Cl)cc3)cc2CC1C (stereo not given),inconclusive: -77.1%,–
CN(c1ncc(C(F)(F)F)cc1Cl)n1cc(C(=O)O)c2ccccc2c1=O,inconclusive: 21.6%,–
c1ccc(-n2cnnc2SCc2cn3ccsc3n2)cc1,inconclusive: 26.1%,–
O=C(CCCN1C(=O)/C(=C/c2ccccc2Cl)SC1=S)NNC(=O)c1ccccc1Cl,inconclusive: -29.2%,–
Cc1ccc(C)c(C(=O)Nc2ccncc2)c1,inconclusive: 7.18%,–
CC(=O)Nc1ccc(NC(=O)C(C)OC(=O)/C=C/c2cccs2)cc1 (stereo not given),–,"inconclusive: 0.146 µM [falling, full curve, poor fit]"
Cc1cccc(C(=O)N2CCN(c3ccc([N+](=O)[O-])c(N4CCOCC4)c3)CC2)c1,inconclusive: -21.6%,–
CC(=O)Nc1ccc(OC(=O)c2cccs2)cc1,inconclusive: -24.4%,–
CCC(=O)Nc1nnc(SCC(=O)Nc2ccc3c(c2)OCO3)s1,inconclusive: 48%,–
CCC(c1nnnn1C(C)(C)C)N1CCN(Cc2ccccc2OC)CC1 (stereo not given),inconclusive: -25.7%,–
COCCNc1nnc(SCC(=O)NC2CCCCC2)s1,inconclusive: 7.39%,–
COc1ccc(/C=C/C(=O)c2ccccc2)cc1Cn1nnc2ccccc21,–,"inconclusive: 29.1 µM [falling, single point]"
O=C1CCCN1CCCNS(=O)(=O)c1ccc(Cl)c(C(=O)N2CCOCC2)c1,–,active: 23.1 µM
CC1CCN(S(=O)(=O)c2ccc(C(=O)Nc3sccc3C(N)=O)cc2)CC1,–,"inconclusive: 20.6 µM [falling, single point]"
COc1ccc2c(Cl)c(C(=O)NN)sc2c1,inconclusive: -14.7%,–
CCN(CC)CCCC(C)NC(=O)c1cc(=O)c2ccccc2o1 (stereo not given),inconclusive: -57.6%,–
Cn1c(=O)c2c(nc(NCc3ccco3)n2C)n(C)c1=O,inconclusive: 57.3%,–
CC(C)NC(=O)CN(C(=O)CCC(=O)Nc1nccs1)c1ccc(C(C)C)cc1,inconclusive: -1.44%,–
CCC(=O)Nc1ccc(S(=O)(=O)Nc2cccnc2)cc1,inconclusive: 11.3%,–

Compound,"lipid storage change, negative = inhibition",Potency
O=C1c2ccccc2C(=O)N1CCCCCCc1ccccc1,–,"inconclusive: 29.1 µM [falling, partial curve, poor fit]"
CCc1nc2ccccc2c(C(=O)OCC(=O)Nc2cccc(S(=O)(=O)N3CCOCC3)c2)c1C,inconclusive: 1.68%,–
Nc1cccc2nc3ccccc3cc12,inconclusive: -4.45%,–
CN(Cc1ccc(Cl)s1)C(=O)CNC(=O)CNC(=O)c1ccc(Cl)cc1Cl,inconclusive: 13.3%,–
CCOC(=O)c1c(C)[nH]c(C)c1C(=O)COC(=O)c1ccc(S(=O)(=O)C(F)F)cc1,–,"inconclusive: 0.146 µM [activator, full curve, poor fit]"
c1ccc(CNc2nc(CN3CCOCC3)nc3scc(-c4ccccc4)c23)cc1,inconclusive: -24.2%,–
O=C(Cn1cccc1)N1CCN(c2ccc(F)cc2)CC1,–,"inconclusive: 2.31 µM [falling, single point]"
Nc1c(Cl)cc(Cl)cc1C(=O)OCC(=O)N1CCCC1,–,"inconclusive: 2.06 µM [rising, partial curve]"
CCCCn1c(N)c(N(CC(C)C)C(=O)CCS(=O)(=O)c2ccc(C)cc2)c(=O)[nH]c1=O,inconclusive,–
O=C(O)C1CCCN1c1nc(-c2ccc(Cl)c(Cl)c2)cc(C(F)(F)F)n1 (stereo not given),inconclusive: 7.92%,–
O=C(Nc1ccccc1C(=O)N1CCCC1)c1ccc(Cl)cc1Cl,–,"inconclusive: 5.17 µM [falling, single point]"
Cc1c(C)n(C)c2ccc(C(=O)Nc3cccc4ccccc34)cc12,inconclusive: -4.41%,–
CCOc1ccc2nc(N3CCCC(C(=O)NCCCN4C(C)CCCC4C)C3)sc2c1 (stereo not given),–,"inconclusive: 0.146 µM [activator, full curve, poor fit]"
CN(C)CCCn1c(=S)[nH]c2ccccc2c1=O,inconclusive: -28%,–
Cc1nc2[nH]c(=S)[nH]c2cc1Br,inconclusive: -1.66%,–
N#CCCN(C(=O)COC(=O)CCc1c[nH]c2ccccc12)c1ccc(F)cc1,inconclusive,–
COc1ccc(-n2nnnc2SCC(=O)Nc2ccccc2N2CCOCC2)cc1OC,inconclusive: -29.8%,–
O=C(Cn1ccc(NC(=O)OCc2ccccc2)nc1=O)NCCc1ccccn1,–,"inconclusive: 0.146 µM [falling, single point]"
COc1cc(CNC2CCCc3ccccc32)cc(OC)c1OC (stereo not given),inconclusive: 28.1%,–
Cc1cc(OCC(=O)Nc2ccc(N3CCN(C)CC3)cc2)ccc1Cl,–,"inconclusive: 1.84 µM [activator, partial curve, poor fit]"
Cc1cc(C)c2c(CC(=O)Nc3ccc(Cl)cn3)coc2c1,inconclusive: -13.7%,–
Cc1cc(C(=O)NC2CC(C)(C)Cc3c2cnn3-c2cccc(F)c2)n(C)n1 (stereo not given),inconclusive: -23.1%,–
O=C(Cn1cnc2ccccc2c1=O)NCCC(=O)Nc1ccc2c(c1)OCO2,inconclusive: 5.83%,–
COc1ccc(NC(=O)C/C(C)=N/NC(=O)c2cnccn2)c(OC)c1,–,"inconclusive: 29.1 µM [activator, single point]"
COc1cc(C(C)=O)ccc1OCC(O)Cn1nc(C)c(C(C)=O)c1C (stereo not given),–,"inconclusive: 0.92 µM [falling, full curve, poor fit]"

# Part of the list above in order of molar mass, ascending.
Compound,"lipid storage change, negative = inhibition",Potency
Cc1ccc(C)c(C(=O)Nc2ccncc2)c1,inconclusive: 7.18%,–
CN(C)CCCn1c(=S)[nH]c2ccccc2c1=O,inconclusive: -28%,–
Cn1c(=O)c2c(nc(NCc3ccco3)n2C)n(C)c1=O,inconclusive: 57.3%,–
COc1ccc(NC(=O)C/C(C)=N/NC(=O)c2cnccn2)c(OC)c1,–,"inconclusive: 29.1 µM [activator, single point]"
CC(=O)Nc1ccc(NC(=O)C(C)OC(=O)/C=C/c2cccs2)cc1 (stereo not given),–,"inconclusive: 0.146 µM [falling, full curve, poor fit]"
CCC(c1nnnn1C(C)(C)C)N1CCN(Cc2ccccc2OC)CC1 (stereo not given),inconclusive: -25.7%,–
O=C(Cn1cnc2ccccc2c1=O)NCCC(=O)Nc1ccc2c(c1)OCO2,inconclusive: 5.83%,–
CN(c1ncc(C(F)(F)F)cc1Cl)n1cc(C(=O)O)c2ccccc2c1=O,inconclusive: 21.6%,–
O=C(O)C1CCCN1c1nc(-c2ccc(Cl)c(Cl)c2)cc(C(F)(F)F)n1 (stereo not given),inconclusive: 7.92%,–
O=C(Cn1ccc(NC(=O)OCc2ccccc2)nc1=O)NCCc1ccccn1,–,"inconclusive: 0.146 µM [falling, single point]"
COc1ccc(NS(=O)(=O)c2cc(Br)cc3c2N(C(C)=O)CC3)cc1,inconclusive: -44.6%,–
CN(Cc1ccc(Cl)s1)C(=O)CNC(=O)CNC(=O)c1ccc(Cl)cc1Cl,inconclusive: 13.3%,–
CC(=O)N1c2ccc(S(=O)(=O)NCCC(=O)NCc3ccc(Cl)cc3)cc2CC1C (stereo not given),inconclusive: -77.1%,–
COc1ccc(-n2nnnc2SCC(=O)Nc2ccccc2N2CCOCC2)cc1OC,inconclusive: -29.8%,–
